The record followed here is patent US20190177380, “SYNTHETIC MBNL PROTEINS FOR TREATMENT OF REPEAT EXPANSION DISEASE” (University of Florida Research Foundation, Incorporated, published 2019).

Protein sequences can lack the tags named with them. For some of these results: The exact form of at least one protein or probe is not confirmed. For some of these results: The direction of at least one scale is not stated here. Some results are limits rather than exact numbers.

For series [1], the system named is T1, MBNL1(3-4,3-4) (Homo sapiens).
T1 sequence: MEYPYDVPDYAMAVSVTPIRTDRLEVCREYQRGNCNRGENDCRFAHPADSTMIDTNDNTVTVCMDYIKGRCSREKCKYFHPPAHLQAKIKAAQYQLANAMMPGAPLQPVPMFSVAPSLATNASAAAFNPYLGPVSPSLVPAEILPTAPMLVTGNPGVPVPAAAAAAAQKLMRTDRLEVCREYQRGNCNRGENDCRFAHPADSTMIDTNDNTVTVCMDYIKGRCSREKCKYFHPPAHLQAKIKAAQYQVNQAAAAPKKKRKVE
Kind of series: SELEX. The settings on record: top 7mers; peak R at 1000 nM protein; purified recombinant protein.

Series [2] has as its target T2, WT-MBNL1 (truncated, aa 1-260 with HA tag and SV40 NLS) (Homo sapiens) (UniProt Q9NR56).
T2 sequence: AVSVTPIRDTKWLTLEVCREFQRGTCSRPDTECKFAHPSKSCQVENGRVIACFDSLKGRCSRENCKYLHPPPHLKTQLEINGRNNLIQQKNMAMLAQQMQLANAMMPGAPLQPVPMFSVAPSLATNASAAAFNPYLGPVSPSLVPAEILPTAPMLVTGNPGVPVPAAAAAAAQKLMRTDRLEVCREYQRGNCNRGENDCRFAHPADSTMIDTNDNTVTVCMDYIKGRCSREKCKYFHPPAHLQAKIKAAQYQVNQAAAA
Put plainly: SELEX. The settings on record: purified recombinant protein; for selection result: RBNS top three 7mer.

Series [3] deals with T3, MBNL1(1-2,1-2) (Homo sapiens).
T3 sequence: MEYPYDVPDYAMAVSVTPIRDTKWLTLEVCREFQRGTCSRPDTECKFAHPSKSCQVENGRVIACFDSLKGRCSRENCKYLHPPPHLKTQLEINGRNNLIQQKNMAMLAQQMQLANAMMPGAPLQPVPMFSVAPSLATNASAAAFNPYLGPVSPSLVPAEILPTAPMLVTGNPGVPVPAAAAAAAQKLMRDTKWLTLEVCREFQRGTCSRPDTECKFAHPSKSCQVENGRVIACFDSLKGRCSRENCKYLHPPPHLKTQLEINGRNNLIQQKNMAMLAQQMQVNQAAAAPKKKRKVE
Put plainly: SELEX. The settings on record: purified recombinant protein; for selection result: RBNS top three 7mer.

Series [4] deals with T2, WT-MBNL1 (truncated, aa 1-260 with HA tag and SV40 NLS) (Homo sapiens). Kind of series: EMSA. The following applies: no observable binding; 5 mM MgCl2; purified recombinant protein; label: 5'-32P; variant of CUG4.
For series [5], the system named is T3, MBNL1(1-2,1-2) (Homo sapiens). Put plainly: EMSA. The settings on record: no observable binding; 5 mM MgCl2; purified recombinant protein; label: 5'-32P; variant of CUG4. (In EMSA bound probe runs differently from free probe, usually more slowly.)
Series [6] has as its system T1, MBNL1(3-4,3-4) (Homo sapiens). Put plainly: EMSA. The following applies: no observable binding; 5 mM MgCl2; purified recombinant protein; label: 5'-32P; variant of CUG4.

As for CUGCUGC [RBNS 7mer CUGCUGC], the binding signal in series [1] was 3 RBNS R value.
As for GCGCUGC [RBNS 7mer GCGCUGC], the binding signal in series [1] is 3 RBNS R value.
On the same count and under the same terms, the figure for CGCUGCU [RBNS 7mer CGCUGCU] is 3 RBNS R value.
GCUUGCU [RBNS 7mer GCUUGCU]: the binding signal in series [2] (top 7mer, peak R at 250 nM protein, R of 7 stated for top kmers generally) was found to be 7 RBNS R value; in series [3] (among top three 7mers, peak R at 500 nM protein, R of 10 stated for top kmers generally), 10 RBNS R value.
Turning to GCUGCGC [RBNS 7mer GCUGCGC], in series [1], the binding signal was 3 RBNS R value.
As to GCAGCAGUUCGCAGCAG [CAG4], the Kd in series [4], in series [5] and in series [6] was more than 2500 nM each time.
Consider CGCUUGC [RBNS 7mer CGCUUGC], for which the selection result in series [2] and in series [3] was “selected” each time.
On to UGCUUGC [RBNS 7mer UGCUUGC], for which the selection result in series [2] and in series [3] was “selected” throughout.

As a reminder, the Kd is the free concentration of one partner at which half of the binding sites on the other are occupied at equilibrium, for simple one-to-one binding.
